Values from PubChem BioAssay AID504774 (Drosophila RNAi Screening Center, 2011)
Purpose: 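Genes required for cells to withstand methyl methanesulphonate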 (primary screen). Cells: Drosophila Kc167 cells. Reagent: long dsRNA against Drosophila genes, about 0.25 µg dsRNA per well. Time to read-out: about 6 days: 3 days knock-down, then 3 days with or without MMS. Treatment: methyl methanesulphonate 0.004% (w/v) for 3 days after knock-down. Measured: 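ATP-dependent luminescence as a measure of live cells in MMS-exposed wells, quantile normalised within each plate, with replicate values also given as a mean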. Direction: mean viability with MMS and viability with MMS: higher = more surviving cells after MMS.
In all, the deposit lists about 23,000 reagents; this is a random part of those with a known target gene and a result. 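Values are quantile-normalised luminescence on an arbitrary scale; higher means more cells surviving MMS.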 Names joined by + are all predicted targets of the reagent. Not all columns of the deposit are shown.

Gene	dsRNA	mean viability with MMS	viability with MMS, replicate 1
TwdlV (TweedleV)	DRSC12226	3.61e6	4.02e6
CG9988	DRSC16587	3.55e6	4.10e6
CG3955	DRSC06859	3.39e6	3.81e6
CG10086	DRSC14183	3.53e6	4.01e6
CG14720	DRSC14942	3.60e6	4.08e6
Trpm (Transient receptor potential cation channel, subfamily M)	DRSC06629	3.55e6	4.14e6
Trpm (Transient receptor potential cation channel, subfamily M)	DRSC21566	3.42e6	3.93e6
CG33255 (retired record) + hpRNA:CR32205 + hpRNA:CR32207	DRSC09617	3.58e6	4.01e6
Sdb (SAXO downstream of blistered)	DRSC06272	3.46e6	4.04e6
Sdb (SAXO downstream of blistered)	DRSC06273	3.45e6	3.97e6
Sdb (SAXO downstream of blistered)	DRSC07155	3.65e6	4.19e6
drd (drop dead)	DRSC19343	3.48e6	3.99e6
drd (drop dead)	DRSC21466	3.58e6	3.94e6
yellow-e3	DRSC15170	3.50e6	3.96e6
CG9068	DRSC07329	3.68e6	4.02e6
Imp (IGF-II mRNA-binding protein)	DRSC18861	3.50e6	4.03e6
Imp (IGF-II mRNA-binding protein)	DRSC20255	3.61e6	4.47e6
CG11456	DRSC11665	3.60e6	4.12e6
CG13994	DRSC02326	3.54e6	4.07e6
CG8777	DRSC07263	3.44e6	3.87e6
CG16815	DRSC02521	3.56e6	4.09e6
Rab6	DRSC03404	3.65e6	4.25e6
CG13737	DRSC10064	3.38e6	3.73e6
CAH13 (Carbonic anhydrase 13)	DRSC06128	3.47e6	3.90e6
scra (scraps)	DRSC07679	3.48e6	3.96e6
CG5639	DRSC15851	3.48e6	4.01e6
TfIIA-S-2	DRSC17791	3.67e6	4.17e6
Fbxl7 (F-box and leucine-rich repeat protein 7)	DRSC15553	3.67e6	4.20e6
Abca3 (ATP binding cassette subfamily A member 3)	DRSC20546	3.54e6	4.07e6
CG11537	DRSC08200	3.53e6	4.01e6
GatB (Glutamyl-tRNA amidotransferase, subunit B)	DRSC15807	3.69e6	4.22e6
RpL37A (Ribosomal protein L37A)	DRSC02899	3.11e6	3.43e6
BI-1 (Bax Inhibitor-1)	DRSC10782	3.49e6	3.94e6
CG13561	DRSC04199	3.57e6	4.04e6
CG6695	DRSC16098	3.60e6	4.03e6
CG7182	DRSC10780	3.53e6	4.07e6
CG33269	DRSC10585	3.49e6	3.87e6
CG31921	DRSC00013	3.53e6	4.22e6
CG31459	DRSC13380	3.56e6	4.05e6
CG32816	DRSC17337	3.62e6	4.13e6
CG9166	DRSC07842	3.60e6	4.11e6

A few values from above:
Entry for Trpm (Transient receptor potential cation channel, subfamily M) [DRSC21566] under “viability with MMS, replicate 1”: 3.93e6
Entry for Sdb (SAXO downstream of blistered) [DRSC07155] under “mean viability with MMS”: 3.65e6
For “viability with MMS, replicate 1”, Abca3 (ATP binding cassette subfamily A member 3) [DRSC20546] reads 4.07e6
CG14720 [DRSC14942], viability with MMS, replicate 1: 4.08e6
Under “viability with MMS, replicate 1”, CG31459 [DRSC13380] has 4.05e6
Result of TwdlV (TweedleV) [DRSC12226] under “mean viability with MMS”: 3.61e6

More records follow.
Gene	dsRNA	mean viability with MMS	viability with MMS, replicate 1
gogo (golden goal)	DRSC10070	3.43e6	3.85e6
gogo (golden goal)	DRSC10071	3.63e6	4.12e6
Nplp2 (Neuropeptide-like precursor 2)	DRSC09824	3.55e6	4.00e6
Erasp (Endoplasmic reticulum stress-associated serine protease)	DRSC07111	3.56e6	4.06e6
CG12860	DRSC06200	3.63e6	4.27e6
CG33230	DRSC08602	3.46e6	3.92e6
CG15741	DRSC19707	3.38e6	3.85e6
rig (rigor mortis)	DRSC06053	3.46e6	3.81e6
rig (rigor mortis)	DRSC06400	3.51e6	3.95e6
Lk (Leucokinin)	DRSC10022	3.69e6	4.20e6
Cyp9b2 (Cytochrome P450 9b2)	DRSC07390	3.73e6	4.19e6
Arpc3B (Actin-related protein 2/3 complex, subunit 3B)	DRSC20126	3.34e6	3.75e6
l(2)SH0834 (lethal (2) SH0834)	DRSC02854	3.54e6	4.01e6
Gpo1 (Glycerophosphate oxidase 1)	DRSC07128	3.70e6	4.14e6
Rad1 + Sws1	DRSC00778	3.49e6	3.86e6
Dyb (Dystrobrevin)	DRSC07208	3.62e6	4.08e6
Dyb (Dystrobrevin)	DRSC22862	3.28e6	3.91e6
Tim23 (Translocase of inner mitochondrial membrane 23)	DRSC21240	3.58e6	4.05e6
Obp57c (Odorant-binding protein 57c)	DRSC06384	3.45e6	3.95e6
Pa1 (PTIP associated 1)	DRSC19422	3.49e6	3.95e6
stc (shuttle craft)	DRSC03620	3.47e6	3.90e6
CG32432	DRSC11703	2.80e6	3.52e6
CG32432	DRSC11704	3.04e6	3.57e6
CG32432	DRSC11744	3.68e6	4.18e6
snky (sneaky)	DRSC09838	3.57e6	4.03e6
COX7B (Cytochrome c oxidase subunit 7B)	DRSC10895	3.43e6	3.85e6
CG12914	DRSC06229	3.57e6	4.00e6
CG7382	DRSC03052	3.35e6	3.63e6
mys (myospheroid)	DRSC18799	3.51e6	3.83e6
sotv + CG10731	DRSC05930	3.53e6	3.92e6
sotv + CG10731	DRSC05997	3.54e6	3.97e6
disco (disconnected)	DRSC20323	3.43e6	3.87e6
amon (amontillado)	DRSC13784	3.45e6	3.89e6
amon (amontillado)	DRSC16900	3.75e6	4.21e6
CG14160	DRSC10161	3.47e6	3.95e6
Adk1 (Adenosine kinase 1)	DRSC15514	3.48e6	3.98e6
CG32091	DRSC10141	3.60e6	4.21e6
CG32091	DRSC10820	3.49e6	4.00e6
CG1578	DRSC19729	3.27e6	4.01e6
Obp56e (Odorant-binding protein 56e)	DRSC07188	3.55e6	4.06e6
CG13947	DRSC00365	3.70e6	4.13e6
dnc (dunce)	DRSC17758	3.20e6	3.76e6
dnc (dunce)	DRSC17759	3.52e6	4.00e6
dnc (dunce)	DRSC17911	3.47e6	3.96e6
dnc (dunce)	DRSC18763	3.57e6	4.03e6
dnc (dunce)	DRSC18764	3.35e6	3.83e6
